The test has as its target Nef protein tagged at its C-terminal end with the HA epitope (HIV-1). In words: co-immunoprecipitation from 293T cells (anti-HA IP, anti-c-myc blot).

Results are given in words; binding and its absence hold for the method and conditions named. In cells and extracts the contact can be indirect. A result given as binding can be weak or reduced; the word gives no strength.

B1: sdAb Nef19 (VHH)
VHH: EVQLVESGGGLVQPGGSLKLSCAASGSIFRANAMRWYRQAPGKQREWVASVISDDFTDYVDSVRGRFTISKDNAQNTVYLQMNSLKPEDTAVYYCNAQLGGVNYWGQGTQVTVSS
notes: Llama VHH from the immune library; The soluble form carries C-terminal c-myc and 6His tags and is detected with mAb 9E10; also called sdAb Nef19P; sdAb Nef19C
On to B1, for which the binding result is given as “binds”.

For the origin of these results see US20130330342A1 (CENTRE NATIONAL DE LA RECHERCHE SCIENTIFIQUE CNRS, published 2013).
